Reference: PubChem BioAssay AID1224830 (NIAID, 2016)
Here is an unselected part of about 18,000 deposited reagents. Over the whole deposit, about 2,900 (16%) are marked active. 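Calls are made per well; low scores hint the gene aids the LPS response, high scores that it dampens it.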 Unmarked entries are inactive. Repeated entries: four replicate wells of each siRNA pool.

Aim: 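Regulators of TLR4 signalling towards TNF-alpha in macrophage-like cells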 (primary screen)
System: human THP-1 monocytic leukaemia cells, TNF dual-luciferase reporter clone, PMA-differentiated to macrophage-like cells
Knock-down reagent: siRNA pool against human genes, 50 nM
Time to read-out: LPS for 4 h, given about 3 days after siRNA transfection
Conditions: bacterial LPS (TLR4 ligand), 10 ng/ml
Measured: 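Ratio of firefly to renilla light, scaled to the plate median and expressed as a robust z-score per replicate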
Direction: TNF reporter robust z-score: higher = stronger TNF reporter response to LPS
Rule for the call: 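Each well counts as active if its z-score is over 2.8 or under -1.5; controls are left without a call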

For VPS13A (vacuolar protein sorting 13 homolog A), the entry reads TNF reporter robust z-score -0.94.
With knock-down of VPS13A (vacuolar protein sorting 13 homolog A) the results were TNF reporter robust z-score 0.03.
VPS13A (vacuolar protein sorting 13 homolog A) gave TNF reporter robust z-score -0.05.
Against VPS13A (vacuolar protein sorting 13 homolog A), the entry reads TNF reporter robust z-score 1.02.
Against OR2U1P (olfactory receptor family 2 subfamily U member 1 pseudogene) the deposit lists TNF reporter robust z-score -0.35.
Knock-down of OR2U1P (olfactory receptor family 2 subfamily U member 1 pseudogene) resulted in: TNF reporter robust z-score -0.12.
Against OR2U1P (olfactory receptor family 2 subfamily U member 1 pseudogene) the deposit lists TNF reporter robust z-score -0.13.
Depletion of OR2U1P (olfactory receptor family 2 subfamily U member 1 pseudogene) resulted in: TNF reporter robust z-score -0.34.

Continued:
After knock-down of UQCRH (ubiquinol-cytochrome c reductase hinge protein), the record shows TNF reporter robust z-score -0.44.
After knock-down of UQCRH (ubiquinol-cytochrome c reductase hinge protein) the results were TNF reporter robust z-score 1.52.
With knock-down of UQCRH (ubiquinol-cytochrome c reductase hinge protein), the screen gave TNF reporter robust z-score -0.11.
Against UQCRH (ubiquinol-cytochrome c reductase hinge protein) the deposit lists TNF reporter robust z-score -0.05.
Depletion of ARHGAP24 (Rho GTPase activating protein 24) resulted in: TNF reporter robust z-score 1.92.
After knock-down of ARHGAP24 (Rho GTPase activating protein 24) the results were TNF reporter robust z-score 4.54 (active).
Knock-down of ARHGAP24 (Rho GTPase activating protein 24) came out at: TNF reporter robust z-score 2.24.
ARHGAP24 (Rho GTPase activating protein 24) scored TNF reporter robust z-score 0.68.
TENT5D (terminal nucleotidyltransferase 5D) showed TNF reporter robust z-score -1.41.
With knock-down of TENT5D (terminal nucleotidyltransferase 5D), the screen gave TNF reporter robust z-score -0.96.
For TENT5D (terminal nucleotidyltransferase 5D), the entry reads TNF reporter robust z-score 0.12.
Silencing of TENT5D (terminal nucleotidyltransferase 5D) came out at: TNF reporter robust z-score -1.19.
